The source of these data is article PMC11671593.

By UniProt entry, the sequences of proteins in these tests, tags left out.
UniProt Q06330: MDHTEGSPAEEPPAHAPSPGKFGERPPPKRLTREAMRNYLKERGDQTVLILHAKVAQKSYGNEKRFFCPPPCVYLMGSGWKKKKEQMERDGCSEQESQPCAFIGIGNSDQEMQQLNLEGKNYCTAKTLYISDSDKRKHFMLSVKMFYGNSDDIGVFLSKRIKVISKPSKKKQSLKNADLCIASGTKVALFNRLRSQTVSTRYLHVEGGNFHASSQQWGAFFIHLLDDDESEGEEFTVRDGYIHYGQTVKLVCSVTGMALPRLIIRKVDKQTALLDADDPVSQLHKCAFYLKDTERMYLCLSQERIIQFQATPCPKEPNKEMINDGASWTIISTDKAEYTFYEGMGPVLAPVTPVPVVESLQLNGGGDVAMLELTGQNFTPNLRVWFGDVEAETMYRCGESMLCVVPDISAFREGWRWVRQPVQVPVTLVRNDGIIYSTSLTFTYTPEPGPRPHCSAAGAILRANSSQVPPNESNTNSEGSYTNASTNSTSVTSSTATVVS

These are yes or no findings as the source states them, for the method shown. For some of these results: Binding seen in cells or lysates may run through a third protein. Some results given as binding are weak or reduced against the parent protein; the word gives no strength. For some of these results: Tags and fused reporters may be left off the sequences shown.

For one experiment, the target named is T1, GST-TRIM59 (UniProt Q8IWR1).
T1 sequence: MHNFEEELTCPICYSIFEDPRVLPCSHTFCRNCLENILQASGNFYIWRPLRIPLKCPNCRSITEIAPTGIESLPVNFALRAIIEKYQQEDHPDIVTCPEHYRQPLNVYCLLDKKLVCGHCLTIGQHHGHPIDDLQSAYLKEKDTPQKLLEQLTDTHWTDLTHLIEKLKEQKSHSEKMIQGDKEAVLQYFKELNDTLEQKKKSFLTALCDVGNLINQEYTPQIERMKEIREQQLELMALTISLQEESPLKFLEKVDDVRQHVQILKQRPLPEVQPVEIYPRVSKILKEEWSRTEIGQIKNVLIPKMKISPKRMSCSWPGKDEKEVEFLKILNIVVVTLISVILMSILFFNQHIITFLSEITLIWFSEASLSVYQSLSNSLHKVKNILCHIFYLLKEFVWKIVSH
The experiment in a line: pull-down; GST-tagged proteins on GST agarose beads mixed with His-tagged proteins; beads washed five times with PBS; western blot; the paper calls the binding direct; both purified.

Experiment [1] addresses T2, Tripartite motif containing 59 (TRIM59), in PC cells (human (in human PC cell lines)) (UniProt Q8IWR1).
T2 sequence: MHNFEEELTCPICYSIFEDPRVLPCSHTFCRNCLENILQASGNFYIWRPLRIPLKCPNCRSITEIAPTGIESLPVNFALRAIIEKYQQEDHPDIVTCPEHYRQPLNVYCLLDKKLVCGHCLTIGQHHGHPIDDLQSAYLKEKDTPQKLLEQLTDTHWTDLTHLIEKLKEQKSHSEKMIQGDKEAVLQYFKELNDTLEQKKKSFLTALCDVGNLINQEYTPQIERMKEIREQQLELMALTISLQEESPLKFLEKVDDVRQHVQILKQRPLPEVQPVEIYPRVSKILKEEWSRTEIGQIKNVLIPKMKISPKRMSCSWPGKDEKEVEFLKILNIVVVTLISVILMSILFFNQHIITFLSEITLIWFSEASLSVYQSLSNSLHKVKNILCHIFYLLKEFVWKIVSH
The experiment in a line: co-IP; PC cells lysed; IP of TRIM59 and IP of RBPJ with primary antibodies overnight at 4 °C, protein A + G beads, western blot.

Another experiment has as its target GST-RBPJ (UniProt Q06330). The experiment in a line: pull-down; GST-tagged proteins on GST agarose beads mixed with His-tagged proteins; beads washed five times with PBS; western blot; the paper calls the binding direct; both purified. (Immunoblotting shows a protein as a band on a membrane.)
The target of experiment [2] is RBPJ, full-length plasmid in HEK-293T cells (UniProt Q06330). As to the kind of experiment: co-IP; full-length and truncated plasmids of TRIM59 and RBPJ transfected into HEK-293T cells; Co-IP.

On to “His-tagged RBPJ (from UniProt Q06330 1-500)”, for which, in the experiment with GST-TRIM59, the binding result is recorded as “binds”.

Take “Recombination signal binding protein for immunoglobulin kappa J region (RBPJ), in PC cells (from UniProt Q06330 1-500)”: in experiment [1], the binding result is on record as “binds”.

B1: His-tagged TRIM59 (protein, UniProt Q8IWR1 1-403)
chain: MHNFEEELTCPICYSIFEDPRVLPCSHTFCRNCLENILQASGNFYIWRPLRIPLKCPNCRSITEIAPTGIESLPVNFALRAIIEKYQQEDHPDIVTCPEHYRQPLNVYCLLDKKLVCGHCLTIGQHHGHPIDDLQSAYLKEKDTPQKLLEQLTDTHWTDLTHLIEKLKEQKSHSEKMIQGDKEAVLQYFKELNDTLEQKKKSFLTALCDVGNLINQEYTPQIERMKEIREQQLELMALTISLQEESPLKFLEKVDDVRQHVQILKQRPLPEVQPVEIYPRVSKILKEEWSRTEIGQIKNVLIPKMKISPKRMSCSWPGKDEKEVEFLKILNIVVVTLISVILMSILFFNQHIITFLSEITLIWFSEASLSVYQSLSNSLHKVKNILCHIFYLLKEFVWKIVSH
Regarding B1, in the experiment with GST-RBPJ, the binding result is recorded as “binds”.

B2: TRIM59, full-length plasmid in HEK-293T cells (protein, UniProt Q8IWR1 1-403)
chain: MHNFEEELTCPICYSIFEDPRVLPCSHTFCRNCLENILQASGNFYIWRPLRIPLKCPNCRSITEIAPTGIESLPVNFALRAIIEKYQQEDHPDIVTCPEHYRQPLNVYCLLDKKLVCGHCLTIGQHHGHPIDDLQSAYLKEKDTPQKLLEQLTDTHWTDLTHLIEKLKEQKSHSEKMIQGDKEAVLQYFKELNDTLEQKKKSFLTALCDVGNLINQEYTPQIERMKEIREQQLELMALTISLQEESPLKFLEKVDDVRQHVQILKQRPLPEVQPVEIYPRVSKILKEEWSRTEIGQIKNVLIPKMKISPKRMSCSWPGKDEKEVEFLKILNIVVVTLISVILMSILFFNQHIITFLSEITLIWFSEASLSVYQSLSNSLHKVKNILCHIFYLLKEFVWKIVSH
For B2, the binding result in experiment [2] is recorded as “binds”.
